Article PMC7217926
No constants are given. Whether binding was seen depends on the method and setting. Binding seen in cells or lysates may run through a third protein. Some binding calls cover weakened binding; strength is not graded here. Each block holds one substance with its values, some of them ahead of it.

The chains behind the UniProt entries cited, without tags or fusion partners.
UniProt Q6NUN9: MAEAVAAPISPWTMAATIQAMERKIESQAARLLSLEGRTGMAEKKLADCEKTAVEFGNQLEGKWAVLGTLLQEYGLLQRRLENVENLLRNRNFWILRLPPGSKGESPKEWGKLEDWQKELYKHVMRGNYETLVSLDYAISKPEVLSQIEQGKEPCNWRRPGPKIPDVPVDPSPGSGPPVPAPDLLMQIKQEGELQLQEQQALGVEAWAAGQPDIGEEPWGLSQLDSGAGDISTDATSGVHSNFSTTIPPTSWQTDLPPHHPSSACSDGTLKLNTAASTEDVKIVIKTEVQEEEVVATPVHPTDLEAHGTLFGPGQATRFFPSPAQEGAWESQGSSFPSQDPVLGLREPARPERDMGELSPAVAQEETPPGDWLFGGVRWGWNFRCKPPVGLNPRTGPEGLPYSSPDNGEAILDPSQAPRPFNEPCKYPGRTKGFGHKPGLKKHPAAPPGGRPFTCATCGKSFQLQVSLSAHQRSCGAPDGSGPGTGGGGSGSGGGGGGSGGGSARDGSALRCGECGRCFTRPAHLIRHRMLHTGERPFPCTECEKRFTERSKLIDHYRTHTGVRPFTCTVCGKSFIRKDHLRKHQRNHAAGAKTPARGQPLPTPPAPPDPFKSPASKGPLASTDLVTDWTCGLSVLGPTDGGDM
UniProt Q3U133: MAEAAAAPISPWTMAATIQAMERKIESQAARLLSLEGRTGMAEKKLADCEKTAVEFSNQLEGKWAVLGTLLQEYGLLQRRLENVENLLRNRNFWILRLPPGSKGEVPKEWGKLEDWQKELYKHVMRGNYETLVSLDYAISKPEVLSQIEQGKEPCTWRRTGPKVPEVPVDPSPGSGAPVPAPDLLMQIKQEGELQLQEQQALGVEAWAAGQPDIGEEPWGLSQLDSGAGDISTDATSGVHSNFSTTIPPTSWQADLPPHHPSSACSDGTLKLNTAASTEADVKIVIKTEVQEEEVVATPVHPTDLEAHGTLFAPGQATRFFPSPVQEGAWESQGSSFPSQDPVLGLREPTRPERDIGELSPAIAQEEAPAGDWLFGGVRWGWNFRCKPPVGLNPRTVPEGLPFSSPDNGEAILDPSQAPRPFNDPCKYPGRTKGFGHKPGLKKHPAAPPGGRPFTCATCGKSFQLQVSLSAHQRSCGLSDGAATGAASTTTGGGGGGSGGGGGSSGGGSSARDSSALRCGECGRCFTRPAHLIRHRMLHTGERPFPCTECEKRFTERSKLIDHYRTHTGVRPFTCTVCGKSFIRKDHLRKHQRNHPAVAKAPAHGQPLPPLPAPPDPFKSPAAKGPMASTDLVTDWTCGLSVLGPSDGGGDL
UniProt Q12778: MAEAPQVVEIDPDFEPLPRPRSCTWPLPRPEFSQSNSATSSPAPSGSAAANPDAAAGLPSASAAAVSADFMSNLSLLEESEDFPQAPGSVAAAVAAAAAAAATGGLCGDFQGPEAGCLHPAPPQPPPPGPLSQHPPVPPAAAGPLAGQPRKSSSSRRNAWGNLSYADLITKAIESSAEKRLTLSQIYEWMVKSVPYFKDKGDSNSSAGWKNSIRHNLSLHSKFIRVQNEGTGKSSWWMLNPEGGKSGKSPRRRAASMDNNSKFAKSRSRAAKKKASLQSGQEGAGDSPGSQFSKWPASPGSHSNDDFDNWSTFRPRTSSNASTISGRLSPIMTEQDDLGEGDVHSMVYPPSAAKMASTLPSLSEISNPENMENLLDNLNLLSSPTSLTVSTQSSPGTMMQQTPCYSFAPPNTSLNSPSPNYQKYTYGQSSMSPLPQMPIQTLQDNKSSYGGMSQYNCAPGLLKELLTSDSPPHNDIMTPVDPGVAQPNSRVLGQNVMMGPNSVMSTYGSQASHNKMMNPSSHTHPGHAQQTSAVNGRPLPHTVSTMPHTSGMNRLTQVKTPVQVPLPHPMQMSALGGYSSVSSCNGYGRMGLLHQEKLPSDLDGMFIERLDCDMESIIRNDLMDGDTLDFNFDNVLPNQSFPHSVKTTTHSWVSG
UniProt Q9R1E0: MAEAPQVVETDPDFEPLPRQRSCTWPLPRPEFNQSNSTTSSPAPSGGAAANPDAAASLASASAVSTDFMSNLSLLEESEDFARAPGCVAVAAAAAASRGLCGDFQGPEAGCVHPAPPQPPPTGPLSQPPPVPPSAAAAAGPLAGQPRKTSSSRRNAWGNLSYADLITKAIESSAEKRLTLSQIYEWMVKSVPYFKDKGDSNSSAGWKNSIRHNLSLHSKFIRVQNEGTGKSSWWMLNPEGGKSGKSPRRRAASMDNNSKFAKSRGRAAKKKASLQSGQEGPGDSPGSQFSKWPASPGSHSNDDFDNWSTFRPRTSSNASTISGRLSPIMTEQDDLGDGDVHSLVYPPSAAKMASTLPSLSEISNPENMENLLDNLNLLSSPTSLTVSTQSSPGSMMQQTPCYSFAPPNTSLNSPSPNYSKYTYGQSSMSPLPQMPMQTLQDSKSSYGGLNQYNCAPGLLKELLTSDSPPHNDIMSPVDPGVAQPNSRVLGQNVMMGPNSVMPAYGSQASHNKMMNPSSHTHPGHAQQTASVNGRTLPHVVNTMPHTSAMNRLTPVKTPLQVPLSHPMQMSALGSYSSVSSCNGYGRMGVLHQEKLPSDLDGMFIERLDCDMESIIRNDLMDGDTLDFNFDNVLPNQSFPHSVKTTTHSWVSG

What was measured:
[1] = molecular target: ZNF746 (PARIS), Flag-tagged, overexpressed (UniProt Q6NUN9); assay: co-IP; 293T cells expressing PARIS-Flag and FoxO1; immunoprecipitation with FoxO1 or PARIS antibodies, magnetic beads, 4 °C overnight; lysis in 10 mM Tris-HCl pH 7.4, 150 mM NaCl, 1 mM EDTA, 1% Triton X-100; immunoblot
[2] = molecular target: ZNF746 (PARIS), endogenous in C2C12 myoblasts (mouse (endogenous in C2C12)) (UniProt Q3U133); assay: co-IP; C2C12 cells, untreated or treated with TNF-α (20 ng/ml, 24 h); co-immunoprecipitation of FoxO1 with anti-PARIS antibody; lysis in 10 mM Tris-HCl pH 7.4, 150 mM NaCl, 1 mM EDTA, 1% Triton X-100; immunoblot
[3] = molecular target: FoxO1, overexpressed from pcDNA3-FoxO1 (UniProt Q12778); assay: co-IP; 293T cells expressing PARIS-Flag and FoxO1; immunoprecipitation with FoxO1 or PARIS antibodies, magnetic beads, 4 °C overnight; lysis in 10 mM Tris-HCl pH 7.4, 150 mM NaCl, 1 mM EDTA, 1% Triton X-100; immunoblot

binding [1]: binds
Substance: FoxO1, overexpressed from pcDNA3-FoxO1 (from UniProt Q12778 1-655)

binding [2]: binds
Substance: FoxO1, endogenous in C2C12 myoblasts (from UniProt Q9R1E0 1-652)

binding [3]: binds
Substance: ZNF746 (PARIS), Flag-tagged, overexpressed (from UniProt Q6NUN9 1-644)
